From paper doi:10.1101/2022.05.27.493725
No constants are given. Whether binding was seen depends on the method and setting. Binding seen in cells or lysates may run through a third protein. Some results given as binding are weak or reduced against the parent protein; the word gives no strength.

Sequences of proteins named here, by UniProt entry; tags and fusion partners are left off. Residues count along the entry.
UniProt Q5TKA1: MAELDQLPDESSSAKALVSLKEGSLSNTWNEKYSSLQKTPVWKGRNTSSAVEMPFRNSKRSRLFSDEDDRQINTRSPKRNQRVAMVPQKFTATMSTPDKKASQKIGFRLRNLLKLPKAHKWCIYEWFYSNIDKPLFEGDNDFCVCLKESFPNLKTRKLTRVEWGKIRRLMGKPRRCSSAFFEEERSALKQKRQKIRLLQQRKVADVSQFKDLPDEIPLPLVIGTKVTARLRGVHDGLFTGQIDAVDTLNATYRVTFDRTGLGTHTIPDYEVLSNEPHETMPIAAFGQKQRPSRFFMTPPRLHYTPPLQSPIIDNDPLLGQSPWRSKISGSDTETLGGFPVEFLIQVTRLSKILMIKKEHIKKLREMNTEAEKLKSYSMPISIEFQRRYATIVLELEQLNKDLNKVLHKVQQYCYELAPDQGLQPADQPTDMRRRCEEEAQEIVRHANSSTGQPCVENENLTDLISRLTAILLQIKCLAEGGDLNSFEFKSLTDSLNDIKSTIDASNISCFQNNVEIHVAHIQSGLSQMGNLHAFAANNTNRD
UniProt P10244: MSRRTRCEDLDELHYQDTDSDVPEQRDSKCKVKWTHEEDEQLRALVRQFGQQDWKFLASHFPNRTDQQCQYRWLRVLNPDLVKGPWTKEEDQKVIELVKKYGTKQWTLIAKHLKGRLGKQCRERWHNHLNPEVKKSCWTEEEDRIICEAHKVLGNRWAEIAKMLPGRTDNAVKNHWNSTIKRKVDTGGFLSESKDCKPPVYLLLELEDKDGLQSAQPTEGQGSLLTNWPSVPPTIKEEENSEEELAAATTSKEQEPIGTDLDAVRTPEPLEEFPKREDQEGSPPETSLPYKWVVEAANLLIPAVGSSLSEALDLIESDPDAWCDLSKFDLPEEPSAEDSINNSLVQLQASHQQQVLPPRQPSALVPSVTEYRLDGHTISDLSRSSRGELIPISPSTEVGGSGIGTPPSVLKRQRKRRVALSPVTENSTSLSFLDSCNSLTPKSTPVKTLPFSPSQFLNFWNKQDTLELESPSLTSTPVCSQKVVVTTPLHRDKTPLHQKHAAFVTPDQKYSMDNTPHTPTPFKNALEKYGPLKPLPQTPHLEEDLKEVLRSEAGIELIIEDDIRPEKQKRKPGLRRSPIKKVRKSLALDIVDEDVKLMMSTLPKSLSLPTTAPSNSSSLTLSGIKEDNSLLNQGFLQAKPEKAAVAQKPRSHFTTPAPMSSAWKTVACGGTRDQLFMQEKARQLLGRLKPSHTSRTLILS
UniProt Q15648: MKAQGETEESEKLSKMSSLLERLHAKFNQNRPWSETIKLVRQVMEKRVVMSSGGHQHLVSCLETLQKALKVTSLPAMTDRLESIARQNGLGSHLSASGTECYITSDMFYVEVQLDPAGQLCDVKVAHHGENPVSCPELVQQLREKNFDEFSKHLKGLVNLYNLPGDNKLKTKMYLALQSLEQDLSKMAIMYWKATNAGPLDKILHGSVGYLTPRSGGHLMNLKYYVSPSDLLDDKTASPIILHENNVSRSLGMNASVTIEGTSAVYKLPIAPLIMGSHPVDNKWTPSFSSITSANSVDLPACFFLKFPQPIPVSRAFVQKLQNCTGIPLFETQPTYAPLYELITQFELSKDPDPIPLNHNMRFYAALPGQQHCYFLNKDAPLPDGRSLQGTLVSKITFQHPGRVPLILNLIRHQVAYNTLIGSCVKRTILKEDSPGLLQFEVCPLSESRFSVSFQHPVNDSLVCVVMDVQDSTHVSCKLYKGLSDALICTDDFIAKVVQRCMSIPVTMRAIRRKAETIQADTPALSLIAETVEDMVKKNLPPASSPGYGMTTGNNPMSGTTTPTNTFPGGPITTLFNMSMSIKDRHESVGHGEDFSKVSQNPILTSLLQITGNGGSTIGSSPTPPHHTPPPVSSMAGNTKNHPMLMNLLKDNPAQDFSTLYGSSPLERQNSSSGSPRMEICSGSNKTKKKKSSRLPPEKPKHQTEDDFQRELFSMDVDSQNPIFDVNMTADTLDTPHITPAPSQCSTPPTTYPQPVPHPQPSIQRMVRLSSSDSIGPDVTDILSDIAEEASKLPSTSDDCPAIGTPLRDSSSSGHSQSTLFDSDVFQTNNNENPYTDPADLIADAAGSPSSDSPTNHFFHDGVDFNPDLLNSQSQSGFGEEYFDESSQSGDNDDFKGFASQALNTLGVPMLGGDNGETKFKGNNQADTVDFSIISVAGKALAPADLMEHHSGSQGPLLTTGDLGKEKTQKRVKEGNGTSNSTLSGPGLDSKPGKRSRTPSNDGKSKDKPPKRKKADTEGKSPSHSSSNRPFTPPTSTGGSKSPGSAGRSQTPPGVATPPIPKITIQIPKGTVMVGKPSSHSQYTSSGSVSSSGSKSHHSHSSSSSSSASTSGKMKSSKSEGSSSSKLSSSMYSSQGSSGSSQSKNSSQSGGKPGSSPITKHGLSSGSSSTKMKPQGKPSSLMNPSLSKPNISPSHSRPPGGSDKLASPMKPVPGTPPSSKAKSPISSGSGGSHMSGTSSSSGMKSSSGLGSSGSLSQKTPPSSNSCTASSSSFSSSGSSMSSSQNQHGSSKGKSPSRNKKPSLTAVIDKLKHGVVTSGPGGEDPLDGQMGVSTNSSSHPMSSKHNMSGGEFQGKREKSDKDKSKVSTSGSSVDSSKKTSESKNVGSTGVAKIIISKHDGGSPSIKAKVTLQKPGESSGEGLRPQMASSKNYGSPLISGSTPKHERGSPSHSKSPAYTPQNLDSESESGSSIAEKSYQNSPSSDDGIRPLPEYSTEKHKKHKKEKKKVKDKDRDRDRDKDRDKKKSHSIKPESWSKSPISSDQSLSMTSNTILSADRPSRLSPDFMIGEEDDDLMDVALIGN
UniProt Q9Y4K0, residues 26-774: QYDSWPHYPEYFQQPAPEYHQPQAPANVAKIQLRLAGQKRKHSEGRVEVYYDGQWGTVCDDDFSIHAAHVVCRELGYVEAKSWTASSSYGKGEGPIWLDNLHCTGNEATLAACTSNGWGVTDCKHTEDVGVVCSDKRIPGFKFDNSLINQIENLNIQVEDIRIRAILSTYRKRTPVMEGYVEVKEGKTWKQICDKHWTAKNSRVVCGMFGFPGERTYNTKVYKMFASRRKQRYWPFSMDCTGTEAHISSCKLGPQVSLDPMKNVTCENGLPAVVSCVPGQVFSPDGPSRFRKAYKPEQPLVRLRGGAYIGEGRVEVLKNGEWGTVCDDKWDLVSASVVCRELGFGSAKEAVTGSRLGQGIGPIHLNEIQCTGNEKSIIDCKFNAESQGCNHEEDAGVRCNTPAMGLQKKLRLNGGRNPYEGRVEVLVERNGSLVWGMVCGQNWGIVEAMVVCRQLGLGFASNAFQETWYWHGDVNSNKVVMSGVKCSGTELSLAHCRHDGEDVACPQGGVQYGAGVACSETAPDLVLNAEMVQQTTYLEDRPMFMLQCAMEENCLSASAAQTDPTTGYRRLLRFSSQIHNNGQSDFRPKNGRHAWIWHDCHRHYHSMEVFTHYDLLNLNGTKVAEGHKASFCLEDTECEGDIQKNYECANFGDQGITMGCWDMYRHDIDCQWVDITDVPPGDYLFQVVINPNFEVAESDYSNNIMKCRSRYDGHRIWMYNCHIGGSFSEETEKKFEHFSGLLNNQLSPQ

Tests used:
Experiment in all cases: co-IP
[1] = biological target: Lin9 (MuvB subunit), endogenous (human (endogenous in MDA-MB-231)) (UniProt Q5TKA1)
[2] = biological target: B-Myb, endogenous (human (endogenous in MDA-MB-231)) (UniProt P10244)
[3] = biological target: MED1, endogenous (human (endogenous in MDA-MB-231)) (UniProt Q15648)
[4] = biological target: T1, FOXM1, endogenous (human (endogenous in MDA-MB-231)) (UniProt Q08050)
T1 sequence: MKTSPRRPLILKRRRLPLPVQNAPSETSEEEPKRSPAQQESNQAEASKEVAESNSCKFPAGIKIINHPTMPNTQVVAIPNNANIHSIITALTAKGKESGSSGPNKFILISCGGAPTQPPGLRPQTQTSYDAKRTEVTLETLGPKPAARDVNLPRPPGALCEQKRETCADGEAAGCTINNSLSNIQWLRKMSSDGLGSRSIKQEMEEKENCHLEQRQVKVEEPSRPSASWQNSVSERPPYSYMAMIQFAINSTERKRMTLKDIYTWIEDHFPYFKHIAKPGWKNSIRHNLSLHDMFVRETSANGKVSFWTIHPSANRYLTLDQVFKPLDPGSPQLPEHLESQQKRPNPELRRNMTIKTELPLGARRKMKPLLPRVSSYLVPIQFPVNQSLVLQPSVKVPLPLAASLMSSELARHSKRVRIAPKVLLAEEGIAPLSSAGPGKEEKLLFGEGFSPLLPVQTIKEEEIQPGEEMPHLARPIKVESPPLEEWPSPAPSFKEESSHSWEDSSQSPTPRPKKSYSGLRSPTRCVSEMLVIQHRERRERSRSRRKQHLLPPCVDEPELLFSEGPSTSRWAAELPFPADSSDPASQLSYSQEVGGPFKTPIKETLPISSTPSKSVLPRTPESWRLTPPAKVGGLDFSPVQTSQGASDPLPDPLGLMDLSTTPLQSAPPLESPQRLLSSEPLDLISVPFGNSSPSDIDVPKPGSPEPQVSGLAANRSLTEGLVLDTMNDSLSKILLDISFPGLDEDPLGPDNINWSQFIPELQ

binding [1]	binding [2]	binding [3]	binding [4]	Substance
binds	binds	binds	binds	Lysyl Oxidase Like 2 (LOXL2), endogenous (from UniProt Q9Y4K0 26-774)
binds	binds			MED1, endogenous (from UniProt Q15648 1-1581)
